# According to PubChem BioAssay AID2685 (National Center for Advancing Translational Sciences (NCATS), 2010):
# The other results are listed elsewhere or left out. The main result of the screen is listed elsewhere. These columns were measured beside it and carry no call. Compounds called inactive in the main read-out are mostly missing here. Words in brackets tell the shape of the fitted curve; partial curves, single points and poor fits give uncertain potencies.
# Assay: qHTS Assay for Lipid Storage Modulators in Drosophila S3 Cells;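 on cell number change: cells counted by Cell Tracker Red CMTPX staining in the red channel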
# Details: BODIPY lipid droplet fluorescence, 18-24 h; for cell number change: measured here: cell count max response, cells fed with added oleic acid
# Method in brief: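 Drosophila S3 cells got compounds at several concentrations plus oleic acid (400 uM solution). Laser-scanning cytometry with 488 nm excitation read lipid droplets at 500-530 nm and cells at 575-640 nm. Percent activity was relative to 20 uM Triacsin C.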
# [1] = measured here: cell number channel AC50, cells fed with added oleic acid
# [2] = measured here: lipid fluorescence (Fed channel) AC50, cells fed with added oleic acid
SMILES,AC50 [1],cell number change [%],AC50 [2]
Cn1c(/C(C#N)=C/C2CC=CCC2)nc2ccccc21 (stereo unspecified),"0.92 µM [rising, partial curve]",,
O=c1oc2ccccc2cc1-c1ccc(O)cc1,,-5.1,
COc1ccc(N(CC(=O)N2CCN(Cc3ccccc3)CC2)S(C)(=O)=O)cc1OC,,-15.1,"0.092 µM [falling, full curve, poor fit]"
COc1ccc(NC(=O)CSc2nc(N)cc(=O)[nH]2)cc1S(=O)(=O)N1CCCCC1,,2.86,"18.4 µM [rising, single point]"
CCCNC(=O)[C@H]1N2C(=O)c3c(ccc(OC)c3OC)C2SC1(C)C (stereo partly specified),,-11.9,"23.1 µM [falling, single point]"
Cc1nc2c(sc3nc(N4CCOCC4)c4c(c32)CC(C)(C)OC4)c(-c2ccc(Cl)cc2)c1C(=O)O,,,"10.3 µM [falling, partial curve]"
CCCn1c(C(CO)Nc2nc(-c3cccc(Br)c3)cs2)nc2ccccc21 (stereo unspecified),,-19.8,"29.1 µM [falling, single point]"
CC[C@@]12C(=O)N(c3ccccc3)C(=O)N1[C@H](c1ccc(OC)cc1)[C@@H]1C(=O)N(C(C)(C)C)C(=O)[C@@H]12,,-1.39,"0.13 µM [falling, full curve, poor fit]"
COc1cc(CNn2nnnc2N)cc(Br)c1OCc1c(Cl)cccc1Cl,,12,"29.1 µM [rising, single point]"
Cc1c(C(=O)NCCNc2ncc(C(F)(F)F)cc2Cl)cccc1[N+](=O)[O-],,2.78,"6.51 µM [falling, single point]"
Cc1n[nH]c(=S)n(NC(=O)/C=C/C(=O)Nn2c(=S)[nH]nc(C)c2=O)c1=O,,46.7,"0.146 µM [falling, full curve, poor fit]"
Cc1cnc(NC(=O)C2CC=CCC2)s1 (stereo unspecified),,2.52,"0.116 µM [falling, partial curve, poor fit]"
O=C(NNC(=O)c1cc(-c2ccncc2)nc2ccccc12)c1cccc(Cl)c1,"2.91 µM [rising, single point]",-18.5,"29.1 µM [falling, single point]"
Cc1cc(O)ccc1NC(=O)CCN1C(=O)c2ccc([N+](=O)[O-])cc2C1=O,,-14.1,"0.092 µM [falling, full curve, poor fit]"
COc1cc(C(=O)Nc2cccc(C)n2)ccc1OCC(=O)N1CCOCC1,,-3.63,"29.1 µM [falling, single point]"
Cc1ccc(NC(=O)COC(=O)CN2CCCCCC2=O)cc1C,,-0.413,"0.164 µM [falling, full curve, poor fit]"
CCOc1ccc(/C=N/Nc2ccccn2)cc1OC,,39.2,"0.58 µM [rising, single point]"
COc1ccc([C@H]2CC(=O)C=C(c3ccnc4ccc(Cl)cc34)C2)cc1,"9.2 µM [falling, single point]",-49.3,"29.1 µM [falling, partial curve, poor fit]"

# Part of the list above, as tab-separated lines:
SMILES	AC50 [1]	cell number change [%]	AC50 [2]
CC[C@@]12C(=O)N(c3ccccc3)C(=O)N1[C@H](c1ccc(OC)cc1)[C@@H]1C(=O)N(C(C)(C)C)C(=O)[C@@H]12		-1.39	0.13 µM [falling, full curve, poor fit]
COc1cc(CNn2nnnc2N)cc(Br)c1OCc1c(Cl)cccc1Cl		12	29.1 µM [rising, single point]

# Remaining list, next part

SMILES,AC50 [1],cell number change [%],AC50 [2]
O=C(Cn1cnc2cc([N+](=O)[O-])ccc2c1=O)NCc1ccccc1,,30.6,
CCOc1ccc(OCC)c(NC(=O)CSCCc2ccccn2)c1,"0.651 µM [falling, single point]",,
CCOC(=O)N1CCN(C(=O)c2ccccc2-c2ccccc2)CC1,,-18.7,"9.2 µM [falling, single point]"
Cc1cc(/C=N/n2cnnc2)c(C)n1-c1ccc(C(=O)O)cc1,,11,"0.13 µM [rising, full curve, poor fit]"
CC(C)c1nnc(NC(=O)CCC(=O)N2CCN(c3ccc(F)cc3)CC2)s1,"2.91 µM [falling, partial curve, poor fit]",-16.2,
CC(C)(C)c1ccc(-c2nc3n(c(=O)c2C#N)CCS3)cc1,"23.1 µM [falling, single point]",-37.7,
Cc1ccc2cc(CNC(C)(C)C)c(=O)[nH]c2c1,,19.2,"2.31 µM [falling, partial curve]"
Cc1cc(C)c2[nH]c(=O)c(CN(Cc3cccs3)C(=S)NCC3CCCO3)cc2c1 (stereo unspecified),"1.84 µM [rising, full curve, poor fit]",27.4,"0.651 µM [rising, partial curve]"
CC(=O)Nc1nc(C)nc(C)c1C(C)=O,,,"6.51 µM [falling, single point]"
COc1ccc(/C=N/Nc2ccc([N+](=O)[O-])cc2S(=O)(=O)N2CCN(C)CC2)cc1,"7.31 µM [falling, partial curve]",-57.4,"0.517 µM [rising, partial curve]"
COC(=O)C(Cc1ccc(O)cc1)NC(=O)NC12CC3CC(CC(C3)C1)C2 (stereo unspecified),"16.4 µM [falling, single point]",-40.2,
COc1ccc(Cl)cc1C(=O)NNC(=O)c1cccc([N+](=O)[O-])c1,"0.00517 µM [rising, full curve, poor fit]",0.955,"6.51 µM [rising, partial curve, poor fit]"
C/C(=N\OCc1nc2ccccc2c(=O)n1/N=C/c1cc([N+](=O)[O-])ccc1O)c1ccccc1,"0.146 µM [rising, full curve]",7.07,"0.231 µM [rising, full curve]"
O=C(NC1CC1)c1ccc(F)cc1Cl,"0.00461 µM [falling, full curve, poor fit]",-16.1,"20.6 µM [falling, partial curve]"
O=C1COc2ccc(C(=O)COC(=O)c3ccc4ccccc4n3)cc2N1,,17.4,"11.6 µM [rising, single point]"
COc1ccc(OC)c(NC(=O)c2ccc(-c3cccs3)cc2)c1,"6.51 µM [falling, single point]",-19,
COc1cc(C(=O)NNC(=O)COc2ccc(Cl)cc2)ccc1OCC(=O)N1CCOCC1,,-15.8,"32.6 µM [rising, partial curve, poor fit]"
